Experimental data taken from PubChem BioAssay AID1259415 (National Center for Advancing Translational Sciences (NCATS), 2018).
Several values for one entry are separate records, joined by “and”; a condition that tells them apart may be missing. Equal values may be shown once. The whole screen tested about 410,000 compounds, of which about 18,000 (4.4%) were called active. The shares of active, inactive and inconclusive entries below differ from those in the screen. Rule as the data show it: active = activity change below about -60%; inconclusive = no clear call, values can overlap the other calls; inactive = above about -39%.

Assay: qHTS Assay for inhibitors of the human cytomegalovirus (HCMV)
Conditions: HFF cells, HCMV-luciferase reporter, 72 h; at 57.5 µM; stronger effect = lower value
In short: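 Human foreskin fibroblasts infected with luciferase-reporter HCMV at MOI 1 PFU/cell, compounds at two doses. Luciferase measured 72 h post infection; normalized to buffer-only basal and Salinomycin (10uM) controls.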
% is scaled to controls: 0 for no effect and ±100 for the full control effect.

Compound | activity change, negative = inhibition
O=C(Cc1ccccc1)NCC(=O)OCC(=O)c1ccc([N+](=O)[O-])cc1 | inconclusive: -44.9%
CON(C)c1nc(NCC(C)C)nc(OCC#N)n1 | inactive: 28.1%
CCCCCC/C(C=O)=C\c1ccccc1 | inconclusive: -47.5%
CC(C)CCOC(=O)c1c(N)n(CC2CCCO2)c2nc3ccccc3nc12 (stereo not drawn) | inconclusive: -45.7%
CC(=O)NS(=O)(=O)c1ccc(NC(=O)/C=C/c2cn(-c3ccccc3)nc2-c2ccccc2)cc1 | inconclusive: -41.8%
CCN1C(=O)C(=O)N(CC(=O)Nc2cc(C)ccc2C)C1=O | inconclusive: 0%
CCOC(=O)C1=CCC(c2ccc(Cl)cc2)N(S(=O)(=O)c2ccc(C)cc2)C1 (stereo not drawn) | inactive: -22.9%
CCN(CCO)c1ncnc2c1sc1nc(C(C)C)c3c(c12)CC(C)(C)OC3 | inconclusive: -47.3%
COc1ccc(/C=N/NC(=O)c2cc(C3CC3)[nH]n2)cc1OC | inactive: 7.37%
Cc1cc2c(C)nc(N/N=C/c3ccc([N+](=O)[O-])cc3)nc2o1 | inconclusive: -41.4%
Cc1noc(C)c1CSCC(=O)N1CCN(c2ccc(F)cc2)CC1 | active: -60.3%
CCO/C(C)=N/n1c2nc3ccccc3nc2c2c(=O)n(CC(C)C)c(C)nc21 | inconclusive: -41.1%
COc1ccc2nc3sc(C(=O)NCCc4ccc(Cl)cc4)cc3cc2c1 | inactive: -2.53%
O=C(NCC(=O)N1CCC(Cc2ccccc2)CC1)c1ccc(Cl)cc1 | inactive: 6.6%
O=C(Cc1ccc(Cl)cc1)Nc1ccc(N2CCN(C(=O)c3ccco3)CC2)cc1 | inactive: -15.9%
O=C(N/N=C/c1ccc(-c2ccc(S(=O)(=O)Nc3ncccn3)cc2)o1)c1cc2ccccc2cc1O | active: -101%
CC(C)NCCCOc1ccc(Cl)cc1Br | inactive: 22.4%
CCS(=O)(=O)c1ncc(Cl)c(C(=O)Nc2ccc(S(=O)(=O)N(C)c3ccccc3)cc2)n1 | active: -98.6% and active: -101%
COc1cccc(-c2cc(=O)c3cc(NC(=O)c4ccccc4)ccc3[nH]2)c1 | inconclusive: -56.4%
CN(Cc1ccccc1)C(=O)COC(=O)C1=NNC(=O)CC1 | inconclusive: -40.9%
COc1ccc(OC2CCN(S(=O)(=O)c3ccc(OC)c(OC)c3)CC2)cc1 | inconclusive: -45.8%
O=C(CSc1ncccn1)N1CCc2ccccc2C1 | inactive: 75.6%

Reprinted at random: three records from the list
Compound | activity change, negative = inhibition
CON(C)c1nc(NCC(C)C)nc(OCC#N)n1 | inactive: 28.1%
O=C(Cc1ccc(Cl)cc1)Nc1ccc(N2CCN(C(=O)c3ccco3)CC2)cc1 | inactive: -15.9%
CCO/C(C)=N/n1c2nc3ccccc3nc2c2c(=O)n(CC(C)C)c(C)nc21 | inconclusive: -41.1%

Continued.

Compound | activity change, negative = inhibition
Cc1cc(NC(=O)C2CC(c3c(F)cccc3Cl)=NO2)n(-c2ccccc2)n1 (stereo not drawn) | inconclusive: -42.4%
Brc1ccc(-c2csc3[n+]2CCCCC3)cc1 | inconclusive: -55.6%
CCCn1cc(S(=O)(=O)c2ccccc2)c(=O)c2cc(OCC)ccc21 | inconclusive: -56.5%
COc1ccc(Sc2cnn(-c3ccccc3)c(=O)c2Cl)cc1 | inconclusive: -48.2%
Nc1nc(CCl)nc(N(c2ccccc2)c2ccccc2)n1 | active: -97.6%
CN(c1ccc(Br)cc1)S(=O)(=O)c1ccc2[nH]cc(C(=O)NCCN3CCOCC3)c(=O)c2c1 | inconclusive: -47.6%
CCOC(=O)c1cccc(NC(=O)c2ccc(NC(=O)C3CCCO3)cc2)c1 (stereo not drawn) | inactive: 24.5%
CC1CCc2c(sc3ncnc(NCc4cccnc4)c23)C1 (stereo not drawn) | inconclusive: -40%
COCCNC(=O)CSc1c(C)cnc2c1c(=O)n(C)c(=O)n2C | inactive: 8.83%
CNC(=O)NNC(=O)c1csc(-c2ccc(C(F)(F)F)cc2Cl)n1 | inconclusive: -55%
COc1ccc2c(c1)sc(=NC(=O)CS(=O)(=O)c1ccc(F)cc1)n2C | active: -73.4%
COc1ccc(N2CCOCC2)c(NC(=O)c2ccc(Br)o2)c1 | active: -81.3%
COc1ccc(-c2nnc(SCc3nnc(-c4cccs4)o3)n2CC2CCCO2)cc1 (stereo not drawn) | inconclusive: -52.3%
COc1ccc(Cn2c(C(=O)O)c(CNCc3ccco3)c3ccc(C)cc32)cc1 | inconclusive: -50.3%
Cc1ccc(NC(=O)Cc2csc(-c3ccccc3)n2)cc1F | inconclusive: -54%
CCCN(CCC)S(=O)(=O)c1nc2nc(C)cc(C)n2n1 | inconclusive: -49.9%
CCOc1ccccc1CNC(=O)c1cnn(-c2ccc(C)cc2)c1-n1cccc1 | inconclusive: -43.7%
CCc1cccc(NC(=O)C2CCN(S(=O)(=O)c3ccc(Br)s3)CC2)c1 | inconclusive: -42.9%
COc1cccc2c1O/C(=N\O)C(C(=O)Nc1ccc(C)cc1)C2 (stereo not drawn) | active: -60.1%
COc1ccc(CCNC(=O)C2CCCN(S(=O)(=O)c3ccc(OC)cc3)C2)cc1 (stereo not drawn) | inconclusive: -56.4%
Cc1ccc(C(=O)N(CCc2ccccc2)Cc2ccccc2)cc1S(=O)(=O)N1CCOCC1 | inactive: -12.5%
